The record followed here is patent US20150031748A1 (AGENCY FOR SCIENCE TECHNOLOGY AND RESEARCH, published 2015).

No constants are given. Whether binding was seen depends on the method and setting. In cells and extracts the contact can be indirect. Some entries that bind do so weakly or less than the wild type. Sequences can lack the tags named with a protein.

Test [1] addresses T1, GST-Slug (full length mouse Slug in pGEX4T-1) (Mus musculus) (UniProt P97469).
T1 sequence: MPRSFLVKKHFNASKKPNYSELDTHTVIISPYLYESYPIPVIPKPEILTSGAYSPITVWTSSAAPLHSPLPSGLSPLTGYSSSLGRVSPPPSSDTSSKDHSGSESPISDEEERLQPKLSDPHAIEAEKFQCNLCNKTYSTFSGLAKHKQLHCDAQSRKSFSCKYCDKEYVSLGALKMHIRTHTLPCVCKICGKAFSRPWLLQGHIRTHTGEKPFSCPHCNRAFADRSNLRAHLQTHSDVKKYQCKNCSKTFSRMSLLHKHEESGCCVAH
Kind of test: GST pull-down of in vitro translated MYC-ZO-2GA, anti-myc blot.

For test [2], the target named is T2, HA-Slug (full length mouse Slug in pDHA, two HA tags) (Mus musculus) (UniProt P97469).
T2 sequence (chain, by the resolver, 35S-methionine labelled in Example 5): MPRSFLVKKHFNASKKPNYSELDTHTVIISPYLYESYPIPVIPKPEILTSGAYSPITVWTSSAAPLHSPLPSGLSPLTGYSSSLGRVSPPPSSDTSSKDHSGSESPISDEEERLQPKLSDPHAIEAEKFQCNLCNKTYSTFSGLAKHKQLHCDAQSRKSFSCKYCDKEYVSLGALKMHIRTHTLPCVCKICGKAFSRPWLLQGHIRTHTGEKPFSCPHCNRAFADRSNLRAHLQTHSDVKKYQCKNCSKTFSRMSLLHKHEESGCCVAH
Kind of test: GST pull-down of 35S-labeled in vitro translated HA-Slug, autoradiography.

B1: MYC tagged GA domain of canine ZO-2 (amino acids 713-947), in vitro translated (protein, not shown: small tags and cut ends)
chain: FKRPVVLFGPIADIALEKLANELPDLFQTAKTEPKDAGSEKSSGVVRLNTVRQIIEQDKHALLDVTPKAVDLLNYTQWFPIVIFFNPDSRQGVKTMRQRLNPTSNKSSRKLYDQANKLKKTCAHLFTATINLNSANDSWFGSLKDTIQHQQGEAVWVSEGKMEGMDDDPEDRMSYLTAMGADYLSCDSRLISDFEDTDGEGGAYTDNELDEPAEEPLVSSITRSSEPVQHEESIR
In the case of B1, in test [1], the binding result was “binds”.

B2: GST-ZO-2SGA (canine ZO-2 amino acids 575-947 in pGEX-6P-1) (protein, not shown: a dimerising Fc or GST; small tags and cut ends)
chain: RADVYRDILACGRGDSFFIRSHFECEKETPQSLAFSRGEVFRVVDTLYDGKLGHWLAVRIGNELEKGLIPNKSRAEQMASVQNAQRDNAGDRADFWRMRGQRSGMKKNLRKSREDLTAAVSVSTKFPAYERVLLREAGFKRPVVLFGPIADIALEKLANELPDLFQTAKTEPKDAGSEKSSGVVRLNTVRQIIEQDKHALLDVTPKAVDLLNYTQWFPIVIFFNPDSRQGVKTMRQRLNPTSNKSSRKLYDQANKLKKTCAHLFTATINLNSANDSWFGSLKDTIQHQQGEAVWVSEGKMEGMDDDPEDRMSYLTAMGADYLSCDSRLISDFEDTDGEGGAYTDNELDEPAEEPLVSSITRSSEPVQHEESIR
Consider B2, for which, in test [2], the binding result is “binds”.

B3: GST-ZO-2GA (canine ZO-2 amino acids 714-947 in pGEX-6P-1) (protein, not shown: a dimerising Fc or GST; small tags and cut ends)
chain: KRPVVLFGPIADIALEKLANELPDLFQTAKTEPKDAGSEKSSGVVRLNTVRQIIEQDKHALLDVTPKAVDLLNYTQWFPIVIFFNPDSRQGVKTMRQRLNPTSNKSSRKLYDQANKLKKTCAHLFTATINLNSANDSWFGSLKDTIQHQQGEAVWVSEGKMEGMDDDPEDRMSYLTAMGADYLSCDSRLISDFEDTDGEGGAYTDNELDEPAEEPLVSSITRSSEPVQHEESIR
On to B3, for which the binding result in test [2] is recorded as “binds”.
